Hit rate of the full screen: of about 53,000 sequences, about 3,700 (7%) were called active.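 The calls were made as follows: active = gene knockdowns whose robust z-score for IL-1 alpha signal is at least 2 or at most -2, so actives lie on both sides; inactive = the rest.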 The list shows a part of the results.

The nature of the assay: Components of the Cytosolic LPS Sensing Pathway: Gene Identification via Genome-wide siRNA Screen.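 Also: robust z of the log signal after scaling to non-targeting control siRNA wells of the plate.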 The conditions noted are these: RAW264.7 macrophages, IL-1a HTRF, actives lie on both sides, screened at 100 nM (by protocol), cells primed 5 h with Pam3CSK4 first. The gist of the method:
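Cells (RAW264.7, 1×10^4 per well) were transfected with siRNA at 100 nM and cultured 48h at 37 degrees C. Pam3CSK4 was added for 5 hours; LipidA transfection followed for 24 hour. IL-1a was then measured by HTRF.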
In general terms: TR-FRET usually uses a lanthanide donor and a delayed reading to cut background.
With CCUAGCCAUGUGGUCAUAGTT against Tex264, the z-score was inactive: 1.63.

In the case of CCCACUUCUAUUGAGUCUGTT against Ppif, the z-score was inactive: 0.193.

Regarding GCAAAUAGUUGGGUAGGAGTT against Taz, the z-score is inactive: -0.77.

In the case of GGUGUGAGGUAAUUUCAGATT against Snx22, the z-score was inactive: 1.69.

Turning to GGAGUAUCUAUGCUCAAUATT against Olfr794, the z-score was inactive: -1.49.

For the sequence GGUCUUGUAGAAAUUUGCCTT against Slc25a21, the z-score is inactive: -0.0695.

On to GCGUGGAUAGUUUCACAGCTT against Fbp1, for which the z-score was inactive: -0.142.

As for GGAAGAGAUCCUAAUAAAGTT against Depdc7, the z-score was inactive: 0.294.

On to GCUAGUGCGCAUGUUUCUCTT against Rasgrp2, for which the z-score is inactive: 0.621.

For the sequence GCUAAUCCAGGUAUUGUCATT against Uba6, the z-score is inactive: -0.262.

On to GGCUUUUUCCUCUACCCACTT against Trhde, for which the z-score was inactive: -0.436.

Consider GGCGAAAUGAACACAAAGCTT against Edf1, for which the z-score is inactive: 0.983.

As to GCGCAUUCUGAUAUUUUCUTT against Dennd11, the z-score is inactive: -0.0987.

Consider GGUUGGCAAUAAGUAUUACTT against Lpin1, for which the z-score was inactive: 1.47.

In the case of CCCAGAAUUAAACAUAGCUTT against Rrh, the z-score was inactive: 0.0181.

With GGCGUGGAAUCACUUUCCATT against Ankrd13b, the z-score is inactive: -1.15.

Regarding GGAGACACCAGACCAACAATT against Gm5458, the z-score is inactive: 0.242.

For GGAAGGCAAAUUCAAAUACTT against Serpinc1, the z-score is inactive: 1.65.

For GGAAGUCAAGAAGAAACCGTT against Morc4, the z-score is inactive: 0.399.

Consider GACAGCAUGAAGGACCUCUTT against Il17c, for which the z-score is inactive: 0.3.

Turning to CCGUGGCAACUGGUAUUAUTT against Spns3, the z-score was inactive: -0.548.

As to GCUUUCUUUUGCACUUGAATT against Ctc1, the z-score was inactive: -1.1.

Turning to GGCGCAUCGUGGACUUCUUTT against Slc36a1, the z-score was inactive: 0.866.

Consider CGUGUGGUGUUGGUAUCAGTT against Spaca1, for which the z-score is inactive: 0.853.

As for GGUAGACCAGGAUUCAAAGTT against B3galt2, the z-score was inactive: 0.306.

As for GGGAGAAGCGAGCAAUAGATT against Pla2g3, the z-score was inactive: -0.198.

With CGUUGCAGUCUAAGCUUGUTT against Rabac1, the z-score was active: 4.44.

On to GGACCUUCAGGAAAUGGCUTT against Mrps14, for which the z-score was inactive: -0.958.

As to CGUGCAAGAAUGUAUUAGATT against Myo5a, the z-score was inactive: -0.282.

Turning to GCACAAUUGCUCUAGGAUGTT against Slitrk3, the z-score was inactive: -1.92.

On to GCGAGAAGGAUUCACCUUCTT against Atg7, for which the z-score was inactive: -0.297.

Regarding CCUUCUCAACAGCGUGAUUTT against Dhx30, the z-score is inactive: 0.474.

For GCUUGGUUUAACAAACAAGTT against Ppm1a, the z-score is inactive: 0.504.

For GGACCACAUUACUAUACCATT against Sort1, the z-score is inactive: 0.098.

GGAUACUGUCAUGUCUUUATT against Olfr1: the z-score was inactive: 0.813.

For the sequence GGAUGAGAAAGAAAAGCACTT against Mettl1, the z-score was inactive: -0.615.

Turning to CGUAGAGCUUCUCAUAUUATT against Olfr1436, the z-score is inactive: -1.48.

In the case of GGAGAUCUAUUGGAUCCAUTT against Trim12a, the z-score was inactive: 0.337.

On to GCUUAUGACUUAAAAGCCCTT against Zfp157, for which the z-score was inactive: 0.452.

Consider GCCUACAUCAUGUAAUAUATT against Cyp2s1, for which the z-score is inactive: -0.0444.

In the case of GCCCGUGUGUAAGUGCAAATT against Wfikkn2, the z-score is active: 2.25.

For GGCAUUUACUUACUGUUCATT against Slc39a10, the z-score was inactive: -0.331.

Turning to CCGCUGUGAUACCAUAUACTT against Nrn1l, the z-score was inactive: -1.52.

For GGAGAUCCUUAAGCUGUUGTT against Aen, the z-score was active: -2.37.

With CGUACCAAAUGCUAACAUUTT against Fam160a2, the z-score was inactive: 0.429.

In the case of CGCGAAUCUAUGAAUCAAATT against Prpf38a, the z-score was inactive: 1.28.

For the sequence GGGAGAAGUUCUGUAUAUUTT against Prdm5, the z-score is inactive: 0.00692.

As to CGAAGAAGAAAUCUUUGGATT against Opn5, the z-score is inactive: 0.494.

For the sequence CCACUAUCCCACCAAUCACTT against Lypd8, the z-score was inactive: -1.03.

Regarding CCAUCUAUGUGAGGUAUUATT against Tapbpl, the z-score was inactive: -1.3.

With CCAUUUGACGAAGGUAAUATT against Olfr180, the z-score is inactive: 0.257.

In the case of GGAAGGUGGUGUCAAAAUGTT against Septin3, the z-score was inactive: 0.96.

On to GGAAAAGGAAGAACUGAUUTT against Sptlc1, for which the z-score was inactive: -0.477.

Regarding GCCUUGUGGGAAGCAAAAATT against Pcyt2, the z-score is inactive: -0.561.

Turning to GGUCCUACCUCAACAUCUGTT against Cap2, the z-score was inactive: 0.653.

As to GGGUCAAUCAGAAGCUAGGTT against Creb3l4, the z-score is inactive: -0.573.

In the case of GGAGUUUUCAUGCCUACAATT against Odam, the z-score was active: 2.58.

With CCUUGAGAAUAUGCUAAAATT against Abca15, the z-score was inactive: 1.62.

With CCGUGGACUAUAACAACUCTT against Mgat5b, the z-score is inactive: 1.61.

As to GGAACCUAAAACACUAAACTT against Zfp938, the z-score is inactive: -0.0254.

Turning to GGUUACAGAACUCAACAAUTT against Dok5, the z-score is inactive: -0.0315.

GGAAGUUAGUGAGUCUAUGTT against Rel: the z-score is inactive: 1.9.

For the sequence GGAAUAGGCCUUCUUGCUGTT against Matr3, the z-score was inactive: -0.395.

As to GGUUCAUUCUCUGCAUUAATT against Rpp40, the z-score is inactive: -0.92.

On to GCGACCAGCUCUUUUAUACTT against Plod1, for which the z-score is inactive: 0.642.

As for GGGCAUCCUGCUAGGCUUUTT against Adcy8, the z-score was inactive: -0.191.

Turning to GGAAAAAGCUACUGAGUCCTT against Cx3cl1, the z-score was inactive: -0.301.

On to GCUGUUUCUCUAAUAACACTT against Nckap5, for which the z-score was inactive: -0.651.
